Experimental data: PubChem BioAssay AID1159584 (Peter MacCallum Cancer Centre, 2016)
Aim: 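Genes that CDH1-null MCF10A cells selectively depend on to survive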 (primary screen). Cell system: human MCF10A breast epithelial cells, parental and CDH1-null. Reagent: siRNA against human genes. Read-out: 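ATP luminescence (CellTiter-Glo) viability per line relative to mean mock wells over all plates, and the ratio of CDH1-null to parental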. Scale: CDH1-null / parental viability ratio: higher = CDH1-null cells survive relatively better than parental.
The deposit covers about 18,000 reagents; below is a part drawn at random. Further read-outs or replicates are left out here. The record does not give: the amount of reagent, the time to read-out.

HTR4 (5-hydroxytryptamine receptor 4) → CDH1-null / parental viability ratio: 1.24
PDE5A (phosphodiesterase 5A) → CDH1-null / parental viability ratio: 1.02
VPS29 (VPS29 retromer complex component) → CDH1-null / parental viability ratio: 0.88
CTC1 (CST telomere replication complex component 1) → CDH1-null / parental viability ratio: 1.08
FBXW10 (F-box and WD repeat domain containing 10) → CDH1-null / parental viability ratio: 1.07
UGT3A1 (UDP glycosyltransferase family 3 member A1) → CDH1-null / parental viability ratio: 1
GRAP2 (GRB2 related adaptor protein 2) → CDH1-null / parental viability ratio: 0.98
ERI3 (ERI1 exoribonuclease family member 3) → CDH1-null / parental viability ratio: 1.21
ARHGDIA (Rho GDP dissociation inhibitor alpha) → CDH1-null / parental viability ratio: 0.84
FSAF1 (40S small subunit processome assembly factor 1) → CDH1-null / parental viability ratio: 1.04
C1QTNF3 (C1q and TNF related 3) → CDH1-null / parental viability ratio: 0.98
WDR45 (WD repeat domain 45) → CDH1-null / parental viability ratio: 1.36
SH3RF2 (SH3 domain containing ring finger 2) → CDH1-null / parental viability ratio: 1.05
SCAF11 (SR-related CTD associated factor 11) → CDH1-null / parental viability ratio: 0.82
SURF4 (surfeit 4) → CDH1-null / parental viability ratio: 0.93

Targets above whose target name begins with F or f:
FBXW10 (F-box and WD repeat domain containing 10) → CDH1-null / parental viability ratio: 1.07
FSAF1 (40S small subunit processome assembly factor 1) → CDH1-null / parental viability ratio: 1.04

The list goes on:
CATSPERT (catsper channel auxiliary subunit tau) → CDH1-null / parental viability ratio: 1.02
BRIP1 (BRCA1 interacting DNA helicase 1) → CDH1-null / parental viability ratio: 1
ATF3 (activating transcription factor 3) → CDH1-null / parental viability ratio: 1.12
CLCN1 (chloride voltage-gated channel 1) → CDH1-null / parental viability ratio: 1.59
MYO1E (myosin IE) → CDH1-null / parental viability ratio: 1.11
TMA7 (translation machinery associated 7 homolog) → CDH1-null / parental viability ratio: 1.49
ESPN (espin) → CDH1-null / parental viability ratio: 1.21
GPR108 (G protein-coupled receptor 108) → CDH1-null / parental viability ratio: 1.65
PSD2 (pleckstrin and Sec7 domain containing 2) → CDH1-null / parental viability ratio: 0.84
NOP2 (NOP2 nucleolar protein) → CDH1-null / parental viability ratio: 0.73
BCL7B (BAF chromatin remodeling complex subunit BCL7B) → CDH1-null / parental viability ratio: 1.64
COX5B (cytochrome c oxidase subunit 5B) → CDH1-null / parental viability ratio: 1
HERPUD2 (HERPUD family member 2) → CDH1-null / parental viability ratio: 0.91
SRRM3 (serine/arginine repetitive matrix 3) → CDH1-null / parental viability ratio: 1.38
FOXD4 (forkhead box D4) → CDH1-null / parental viability ratio: 0.98
KNDC1 (kinase non-catalytic C-lobe domain containing 1) → CDH1-null / parental viability ratio: 0.81
LLGL2 (LLGL scribble cell polarity complex component 2) → CDH1-null / parental viability ratio: 1.04
SPIN2A (spindlin family member 2A) → CDH1-null / parental viability ratio: 0.99
BUB1B (BUB1 mitotic checkpoint serine/threonine kinase B) → CDH1-null / parental viability ratio: 0.91
TRIM69 (tripartite motif containing 69) → CDH1-null / parental viability ratio: 0.78
CHI3L1 (chitinase 3 like 1) → CDH1-null / parental viability ratio: 1.14
MRPL19 (mitochondrial ribosomal protein L19) → CDH1-null / parental viability ratio: 1.24
CRYBB1 (crystallin beta B1) → CDH1-null / parental viability ratio: 1.05
PRMT5 (protein arginine methyltransferase 5) → CDH1-null / parental viability ratio: 1.12
TFDP2 (transcription factor Dp-2) → CDH1-null / parental viability ratio: 1.1
ARPC5L (actin related protein 2/3 complex subunit 5 like) → CDH1-null / parental viability ratio: 1.05
PDCD11 (programmed cell death 11) → CDH1-null / parental viability ratio: 1.09
DMAC1 (distal membrane arm assembly component 1) → CDH1-null / parental viability ratio: 0.87
EIF2S1 (eukaryotic translation initiation factor 2 subunit alpha) → CDH1-null / parental viability ratio: 1.04
TNIP1 (TNFAIP3 interacting protein 1) → CDH1-null / parental viability ratio: 0.69
